{"sequences": {"note": "Amino acid sequences for entries named in this document (tags omitted). Residues count along the entry.", "UniProt Q6UVK1, residues 30-2322": "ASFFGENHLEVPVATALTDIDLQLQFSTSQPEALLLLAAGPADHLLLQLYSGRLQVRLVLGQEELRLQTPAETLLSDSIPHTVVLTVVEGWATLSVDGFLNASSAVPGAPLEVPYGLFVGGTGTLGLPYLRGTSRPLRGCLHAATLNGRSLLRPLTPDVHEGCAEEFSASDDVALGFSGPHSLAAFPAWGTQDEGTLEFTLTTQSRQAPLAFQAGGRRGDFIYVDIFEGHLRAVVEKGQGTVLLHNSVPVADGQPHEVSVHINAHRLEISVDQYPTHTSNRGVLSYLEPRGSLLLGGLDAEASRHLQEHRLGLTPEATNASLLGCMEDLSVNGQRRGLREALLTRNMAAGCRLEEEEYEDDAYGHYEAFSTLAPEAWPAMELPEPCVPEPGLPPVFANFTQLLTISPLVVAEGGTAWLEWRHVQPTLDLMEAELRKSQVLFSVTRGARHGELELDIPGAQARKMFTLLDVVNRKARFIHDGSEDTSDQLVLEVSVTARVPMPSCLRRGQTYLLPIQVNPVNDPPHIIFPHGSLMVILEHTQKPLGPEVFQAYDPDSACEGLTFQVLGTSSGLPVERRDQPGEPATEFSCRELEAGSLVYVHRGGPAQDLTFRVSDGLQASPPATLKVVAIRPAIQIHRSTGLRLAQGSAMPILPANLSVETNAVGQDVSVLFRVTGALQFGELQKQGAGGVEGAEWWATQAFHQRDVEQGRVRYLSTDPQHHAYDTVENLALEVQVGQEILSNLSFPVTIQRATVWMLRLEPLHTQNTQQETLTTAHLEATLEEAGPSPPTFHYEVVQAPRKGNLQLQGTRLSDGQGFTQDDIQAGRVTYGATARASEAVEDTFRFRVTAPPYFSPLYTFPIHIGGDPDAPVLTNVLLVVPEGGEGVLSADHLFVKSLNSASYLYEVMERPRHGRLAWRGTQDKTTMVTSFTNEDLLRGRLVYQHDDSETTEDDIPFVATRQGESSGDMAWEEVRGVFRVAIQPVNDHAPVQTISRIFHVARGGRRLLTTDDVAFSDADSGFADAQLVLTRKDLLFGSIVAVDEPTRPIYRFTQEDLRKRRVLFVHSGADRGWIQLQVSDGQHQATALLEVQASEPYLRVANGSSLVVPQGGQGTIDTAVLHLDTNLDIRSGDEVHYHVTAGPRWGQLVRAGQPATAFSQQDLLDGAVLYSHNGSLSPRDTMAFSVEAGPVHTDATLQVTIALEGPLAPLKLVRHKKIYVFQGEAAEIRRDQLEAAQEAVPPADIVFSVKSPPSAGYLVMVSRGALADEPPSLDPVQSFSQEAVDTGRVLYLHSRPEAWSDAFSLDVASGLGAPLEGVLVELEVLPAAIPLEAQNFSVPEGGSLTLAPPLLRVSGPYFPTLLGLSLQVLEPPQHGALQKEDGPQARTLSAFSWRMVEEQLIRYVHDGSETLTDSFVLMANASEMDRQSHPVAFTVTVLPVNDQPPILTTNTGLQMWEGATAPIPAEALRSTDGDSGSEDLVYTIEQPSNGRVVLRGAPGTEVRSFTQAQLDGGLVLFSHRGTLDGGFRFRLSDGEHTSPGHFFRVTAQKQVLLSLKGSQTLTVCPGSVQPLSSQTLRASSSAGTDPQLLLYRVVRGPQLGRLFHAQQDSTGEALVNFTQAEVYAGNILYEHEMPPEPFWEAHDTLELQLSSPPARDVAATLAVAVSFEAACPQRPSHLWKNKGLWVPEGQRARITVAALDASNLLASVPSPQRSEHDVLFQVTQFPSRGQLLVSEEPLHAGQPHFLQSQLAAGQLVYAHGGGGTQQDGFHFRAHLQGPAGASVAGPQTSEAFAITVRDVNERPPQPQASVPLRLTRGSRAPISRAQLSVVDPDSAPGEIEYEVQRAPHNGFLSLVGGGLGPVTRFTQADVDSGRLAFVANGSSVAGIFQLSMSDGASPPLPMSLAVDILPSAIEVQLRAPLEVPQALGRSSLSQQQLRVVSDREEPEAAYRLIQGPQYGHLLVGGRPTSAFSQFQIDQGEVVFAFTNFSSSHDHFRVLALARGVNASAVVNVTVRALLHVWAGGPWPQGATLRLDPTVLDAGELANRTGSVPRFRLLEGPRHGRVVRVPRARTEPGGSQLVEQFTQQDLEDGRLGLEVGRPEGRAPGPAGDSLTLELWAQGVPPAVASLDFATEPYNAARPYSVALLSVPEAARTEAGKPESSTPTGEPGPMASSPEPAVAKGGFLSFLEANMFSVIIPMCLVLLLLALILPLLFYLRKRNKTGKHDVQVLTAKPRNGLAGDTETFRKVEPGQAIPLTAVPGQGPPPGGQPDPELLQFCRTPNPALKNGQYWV", "UniProt P18177": "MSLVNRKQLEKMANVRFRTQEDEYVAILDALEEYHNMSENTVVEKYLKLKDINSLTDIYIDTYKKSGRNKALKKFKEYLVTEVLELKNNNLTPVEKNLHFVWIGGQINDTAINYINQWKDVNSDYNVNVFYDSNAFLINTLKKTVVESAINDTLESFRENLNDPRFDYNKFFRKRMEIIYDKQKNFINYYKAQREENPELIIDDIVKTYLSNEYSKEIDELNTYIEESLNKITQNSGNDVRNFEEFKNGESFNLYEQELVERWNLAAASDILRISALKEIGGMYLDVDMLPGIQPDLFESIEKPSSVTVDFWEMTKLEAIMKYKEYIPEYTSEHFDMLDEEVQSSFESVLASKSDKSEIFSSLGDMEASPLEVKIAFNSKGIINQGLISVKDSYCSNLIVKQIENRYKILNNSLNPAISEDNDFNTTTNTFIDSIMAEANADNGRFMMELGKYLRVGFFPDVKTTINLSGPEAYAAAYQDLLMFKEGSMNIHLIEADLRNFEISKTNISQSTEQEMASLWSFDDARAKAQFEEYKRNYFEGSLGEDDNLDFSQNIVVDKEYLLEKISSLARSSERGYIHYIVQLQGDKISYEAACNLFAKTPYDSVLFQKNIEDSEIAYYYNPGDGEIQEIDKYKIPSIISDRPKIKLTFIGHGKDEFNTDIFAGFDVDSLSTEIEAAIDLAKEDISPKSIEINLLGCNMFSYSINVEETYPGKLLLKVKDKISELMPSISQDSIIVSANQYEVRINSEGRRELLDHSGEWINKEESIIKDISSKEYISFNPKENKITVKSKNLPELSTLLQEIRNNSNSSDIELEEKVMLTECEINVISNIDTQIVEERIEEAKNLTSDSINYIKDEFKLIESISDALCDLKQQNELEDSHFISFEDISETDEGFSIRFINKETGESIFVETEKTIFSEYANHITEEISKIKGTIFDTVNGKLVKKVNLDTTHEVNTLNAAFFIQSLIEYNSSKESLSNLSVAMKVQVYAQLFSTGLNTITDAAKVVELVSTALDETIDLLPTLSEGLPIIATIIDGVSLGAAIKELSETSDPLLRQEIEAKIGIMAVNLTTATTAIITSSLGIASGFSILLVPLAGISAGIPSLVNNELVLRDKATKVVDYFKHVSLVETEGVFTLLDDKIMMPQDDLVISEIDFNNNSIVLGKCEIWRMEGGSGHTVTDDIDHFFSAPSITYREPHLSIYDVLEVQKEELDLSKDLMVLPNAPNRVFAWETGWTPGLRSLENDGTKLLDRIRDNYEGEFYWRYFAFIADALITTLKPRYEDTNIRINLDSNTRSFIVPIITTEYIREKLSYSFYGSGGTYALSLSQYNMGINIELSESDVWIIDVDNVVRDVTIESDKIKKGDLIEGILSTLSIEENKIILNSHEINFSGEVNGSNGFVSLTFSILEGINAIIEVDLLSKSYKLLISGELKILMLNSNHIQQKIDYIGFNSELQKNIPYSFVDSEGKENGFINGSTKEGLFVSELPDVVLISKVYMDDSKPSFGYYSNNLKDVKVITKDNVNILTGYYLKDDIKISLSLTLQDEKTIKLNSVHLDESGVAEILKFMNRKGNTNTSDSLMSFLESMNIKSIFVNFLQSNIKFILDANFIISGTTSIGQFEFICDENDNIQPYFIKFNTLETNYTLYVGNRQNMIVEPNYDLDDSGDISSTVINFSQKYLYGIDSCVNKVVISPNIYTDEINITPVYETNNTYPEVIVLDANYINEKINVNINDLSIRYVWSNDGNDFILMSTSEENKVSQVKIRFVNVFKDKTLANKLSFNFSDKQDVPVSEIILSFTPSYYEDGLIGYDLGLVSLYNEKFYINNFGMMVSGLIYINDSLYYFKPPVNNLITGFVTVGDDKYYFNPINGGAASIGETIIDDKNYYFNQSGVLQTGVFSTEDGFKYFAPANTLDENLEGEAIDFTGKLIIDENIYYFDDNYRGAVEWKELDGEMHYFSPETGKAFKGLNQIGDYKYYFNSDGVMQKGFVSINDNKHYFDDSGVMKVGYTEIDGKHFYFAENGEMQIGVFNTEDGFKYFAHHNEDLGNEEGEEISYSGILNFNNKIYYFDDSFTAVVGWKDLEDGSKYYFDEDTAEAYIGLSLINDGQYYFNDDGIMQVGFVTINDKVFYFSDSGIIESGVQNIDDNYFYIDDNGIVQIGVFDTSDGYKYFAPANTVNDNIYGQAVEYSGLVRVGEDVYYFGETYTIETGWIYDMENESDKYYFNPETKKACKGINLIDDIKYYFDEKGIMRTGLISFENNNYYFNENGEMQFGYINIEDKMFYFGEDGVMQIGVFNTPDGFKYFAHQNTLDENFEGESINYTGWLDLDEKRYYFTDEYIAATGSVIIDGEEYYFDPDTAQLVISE"}, "source": "paper PMC8213806", "target": "CSPG4, endogenous on HeLa cells (human (endogenous in HeLa)) (UniProt Q6UVK1)", "assay": "cell surface binding assay (immunoblot of cell lysates); only the binder purified", "note": "No constants are given. Whether binding was seen depends on the method and setting. Some binding calls cover weakened binding; strength is not graded here.", "data": [{"substance": "Twin-Strep tagged full-length wild-type TcdB1 (VPI10463 strain), from E. coli (from UniProt P18177 1-2366)", "values": [{"measurement": "binding", "result": "binds"}]}]}
